These are yes or no findings as the source states them, for the method shown.
How the values were obtained:
[1] = molecular target: Catalytic domain of Par17, residues 60-156 (human) (UniProt Q9Y237); experiment: SEC; Superdex 75 10/300, 0.5 ml/min, Tris–HCl 50 mM pH 8.5, 150 mM NaCl; molecular weights estimated from a calibration curve of standards; both purified
[2] = molecular target: Catalytic domain of Pin1, residues 50-163 (human) (UniProt Q13526); experiment: as above
[3] = molecular target: Recombinant human Parvulin 17, full-length, N-terminally His6-tagged (human) (UniProt Q9Y237); experiment: condition: only the monomeric form isolated by SEC and run again; SEC; the monomeric form of Par17 isolated by SEC and analysed by SEC again (Fig. 3A, inset); both purified

Amino acid sequences for entries named in this document (tags omitted). A change or cut given only in a name is not applied to a line headed by its entry. Chains listed by the source or under a name are the forms on record and can include a tag or linker. Residues count along the entry.
Catalytic domain of Par17, residues 60-156 (Q9Y237, residues 35-131): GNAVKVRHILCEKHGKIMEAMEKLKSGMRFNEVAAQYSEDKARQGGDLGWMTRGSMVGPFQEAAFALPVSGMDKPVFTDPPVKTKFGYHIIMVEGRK
Recombinant human Parvulin 17, full-length, N-terminally His6-tagged (Q9Y237-2, form named): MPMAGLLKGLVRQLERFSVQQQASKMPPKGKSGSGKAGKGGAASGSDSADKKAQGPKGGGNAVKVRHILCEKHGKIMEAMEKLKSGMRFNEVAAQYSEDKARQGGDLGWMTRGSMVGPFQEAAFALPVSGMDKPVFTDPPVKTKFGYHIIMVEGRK
UniProt Q13526, residues 50-163: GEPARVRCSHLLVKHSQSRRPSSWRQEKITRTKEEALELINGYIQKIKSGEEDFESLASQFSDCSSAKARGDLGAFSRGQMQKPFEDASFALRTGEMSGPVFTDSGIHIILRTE

Catalytic domain of Par17, residues 60-156 (from UniProt Q9Y237-2 60-156) (domain or fragment)
binding [1]: no binding

Catalytic domain of Pin1, residues 50-163 (from UniProt Q13526 50-163) (domain or fragment)
binding [2]: no binding

Recombinant human Parvulin 17, full-length, N-terminally His6-tagged (from UniProt Q9Y237-2 1-156) (enzyme)
binding [3]: no binding

Reference: article PMC9935730
